Experimental data from publication PMC10217356.
These are yes or no findings as the source states them, for the method shown. In cells and extracts the contact can be indirect. These calls come from enrichment with a bait or labelling near it, and not all partners need be listed. Where a sequence is shown, tags or fusion partners need not be part of it.

T1: FtsZ-GFP (Synechococcus elongatus PCC7942) (UniProt O85785)
T1 sequence: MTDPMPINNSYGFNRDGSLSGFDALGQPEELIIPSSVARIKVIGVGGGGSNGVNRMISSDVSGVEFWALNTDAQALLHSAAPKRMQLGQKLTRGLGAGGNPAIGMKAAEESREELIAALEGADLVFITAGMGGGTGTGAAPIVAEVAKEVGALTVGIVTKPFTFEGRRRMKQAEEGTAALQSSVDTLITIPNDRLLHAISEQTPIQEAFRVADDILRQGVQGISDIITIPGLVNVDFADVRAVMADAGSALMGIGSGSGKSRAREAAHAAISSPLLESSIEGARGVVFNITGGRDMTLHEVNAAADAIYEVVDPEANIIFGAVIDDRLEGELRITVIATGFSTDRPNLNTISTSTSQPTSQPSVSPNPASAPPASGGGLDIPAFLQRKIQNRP

B1: MreB (protein, UniProt Q31RI7 1-345)
chain: MSILRRFSLSRDMGIDLGTANTLVYVSGKGIVLQEPSVVAIDQNLKKPLAVGSEAKLMLGRTPGSVAALRPLRDGVIADFDAAELMLKHFIRQVQEGRSGVARVVIGIPSGVTGVERRAVMEAATQAGAREVYLIDEPVAAAIGAGLPVAEPTGTMIVDIGGGTTEVAVMSLQGIVLSDSVRVAGDELSEAIAQYLKKVHNLVIGERTSEEIKIMVGSAFPDNEFDETTMEVRGLHLLSGLPRTVTIKAAEVRESMAEPLNVIVEAVKRTLEKTPPELAADIVDRGIVLAGGGALVRGLDELISHETGIITHIAPDPLSCVVLGTGRVLENFKSLERVFSASSRA
B2: DNA polI (protein, UniProt Q31RU3 1-953)
chain: MSVDSPLLLLVDGHSLAFRSYYAFAKGRDGGLRTRTGIPTSVCFGFLKALLEVMEQQQPKALAIAFDLGGPTFRHEADENYKANRDEAPEDFKIDTDNLVALLQTLNLPILVEPGYEADDLLGTVAQRGAEAGYRVRILSGDRDLFQLVDPEGAIRVLYLGNTFGRSANREAAREIDPAAVIDKLGVPPEQVIDFKALCGDSSDNIPGVKGIGPKTAVDLLQAWGDLDRIYDNLEAIKPAVRKKLESDREAAYHSRKLAQIVTDIPLAIDWDHYALTGFDEQEVLPWLEKLELQAFRRQVDRLQQLFGGQPPTVEALSDESLDFWTAEETAAQQPRWPQLQPQIITTAAALTDLVTLLEQRDSPEAIVAWDTETTDLDPRLAQLVGIGCAWGEEPDQLAYIPLGHEEGEQLPLQTVLTALRPILESDRHPKALQNAKFDRLILRHQGIELAGVVFDTMLASYLLNPSLGHSLDALADRWLKLQTRSYSDLVPKGKTIAQVAIAAVAQYCGSDVHVVQRLIPLLKAGIAESPALQFLLETVELPLEAVLAEMEDRGIRIDEGYLAELSEHLKGELDRLEGAAHTLAGDRFNLGSPKQLSELLFEKLGLNVKKSRKTKTGYSTDAAVLEKLQGDHPIIDLILEHRTLAKLKSTYVDALPSLVAADGRIHTDFNQAVTATGRLSSSNPNLQNIPIRTEFSRQIRKAFLPREGWLLAAADYSQIELRILAHLSQEPVLLEAYRQGDDVHRLTASLLFDREEITSEERRIGKIINFGVIYGMGAQRFARETGSSTKEAQGFIDRFYDRYPRVFTYLQSLERQAIARGYVETVLGRRRYFDFEDTGLQKLRGSDPESIDLDKIRPSRFEAQLLRAAANAPIQGSSADIIKVAMVQLQALLQSYQARMLLQVHDELVLELPPEEWDSLAPQIQQTMEQAVQLTVPLAVELHAGHNWMEAK
B3: 30S rib prot S6 (protein, UniProt Q31SC5 1-107)
chain: MKDFYYETMYILRADLTEEQVEQAIAKYQTLLTEAGAEVQDTQHRGKRRLAYLINKQREGIYVQINYTGDGSQIAPLERALRLSEEVLRFLTVKQEVRPPAPVAVEA
B4: 50S rib. prot L18 (protein, UniProt Q31L22 1-120)
chain: MKVSRRESTRRRHRRVRRTIVGTPARPRLSVFRSNNHIYAQVIDDAAGHTLAAASSLDPDLRQSLTSGGNQQASAAVGKLIAERAQAKGVTTVVFDRGGNLYHGRVKALAEAAREAGLEF
B5: Inorganic pyrophosphatase (protein, UniProt Q31NF6 1-170)
chain: MDLSRIPAQPKPGLVNVLIEIPGGSKNKYEFDKDLNAFALDRVLYSSVQYPYDYGFIPNTLADDGDPLDGMVILDQPTFPGCVIAARPIGMLEMIDGGDRDEKLLCVPAKDPRYAEVKTLSDLAPHRLEEIAEFFRSYKNLEKKVTEILGWKGPETVQALVDECIKAYNA
B6: ATPase (protein, UniProt Q31PP8 1-569)
chain: MLRLDRISKIYPTGEVLRDVSWEVKPGDRIGLVGVNGAGKSTQMRIIAGLEEATSGEIIRPSSLKIAYLQQEFDIDPERTVREELWQAFGEATTVFNQLSEVEHQMQTAEPEQLDDLIHQLDRLQRRFEALDGYAIDARIAKLLPDLGFGLEDGDRSVAAFSGGWQMRMGLGKILLQEPDLLLLDEPTNHLDLETIEWLETYLKGLSQPMVIISHDREFLDRLCTQIVETERGVARTYLGNYSDYLTQKELEKTAQFAAFERQQKELAEQQAFIDRFRASATRSTQAKSREKQLEKVERIEAPEDNLRGIQFRFPPAPRSGREVVMIEDLTHAYNDKILFLGAELLIERGDRIAFLGPNGAGKSTLLRLILGREPLLEGKVELGAHQVIPSYFEQNQAEALDLEKTVLDTIHDEVPSWKDSEVRTLLGSFCFRSDTVFKKVGALSGGEKARLALAKMLLQPANLLILDEPTNHLDIPAKEMLEEALREYEGTALIVSHDRYFVSRVANKIVEIRDGEFRVYAGDYHYYLEQIQLKKERERLAAIEAEKASKAAAKRAKQKAKQQERRQS
B7: SphX (protein, UniProt P39665 31-337)
chain: SAQRALVTADGSSTVFPISEAVAEEFQKRNKNINVTVGVSGTGGGFKRFCNGEIDIANASRPIKKEEVEACRKKGIRYIELPVAFDALTVVVNKSNPVNSITTAELAKIFGRDAEKKTTNWRQVKSSFPNLPLRVYAPGTDSGTYDYFNEAILNKKGTRGDLTASEDDNILVQGVSRDRGGIGFFGFSYYEENKGKLKALAVVNSNGKAVMPSVQNVLNGTYDPLARPVFIYVSEQAAKKANVRSFVNFYLQNAGKLSREVGFVPLPAKAYTAATQRFRSNKTGTVFAGKSLVGGSIEDLLKAEGIN
B8: L7/12 (protein, UniProt Q31QK6 1-128)
chain: MSAKTDEILESLKTLTLLEAAELVKQIEEAFGVSAAAPVGGVVVAAAAGAAAEAVEEKTEFDVVLEEVPADKKIAVLKVVRGITGLGLKEAKDLVEAAPKPIKEGVSKDDAEAAKKELEEAGAKVSVK
B9: L20 (protein, UniProt Q31NR2 1-116)
chain: MARVKRGNVARKRRNKILKLAKGFRSGNSKLFRTANQRVMKALTNAYRDRRRRKRDFRRLWIARINAAARLHGVSYSRLIGALKKADIQINRKMLAQLAVLDSAGFKAIVDLALKA
B10: L29 (protein, UniProt Q31L15 1-64)
chain: MALPKIEDVRNLSDADLAEKIAEAKRELFDLRFQRATRQLEKPHLFKHTKHRLAQLLTVERERQ
B11: Bicarbonate transport (protein, UniProt Q55107 1-663)
chain: MSLFVAVENIEKSFPLSGGNEYLALKGIDLEIKQGEFISLIGHSGCGKSTLLNLIAGLELPTDGAVSLEGQQITAPGPDRMVVFQNYSLFPWLTVRENIALAVDEVLRDLPKEERQAIVEEHIQLVGLGHAADKPPAQLSGGMKQRVAIARGLATRPKLLLLDEPFGALDALTRGNLQEKLMQICEENHVTAVMVTHDVDEAVLLSDRIVMLTNGPGSKIGGILEVDIPRPRKRMDVVHHPSYYSLRSEIIYFLNQQKRVKKLNARKVTTVARHGLEKVNLEIGYVPLMACAPLVVAQEKAFFAKHGLDEVSLVRETSWRGIVDGLTENYLDAAQMPAGMPVWMSVGGQGGSPLPIVSSLTMSRNGNGITLSKALYDEGIQTVDDFRNLLRSTADKQHIMGIVHPASMHNLLLRYWLAANQIDPDRDVQLRTIPPAQMVADLKDGTIDGYCIGEPWNAWAAQKEIGFTIASDLEIWNGHPGKVLGVREDWANRYPNSHVALVKALLEACQYCEDPANWDELRELLSDRRYLSCPKEYIQFSQSTADDLAVPHHRFAGAGVNRPSRTEHLWMMTQLARWGDVPFPRNWVEILERVCRVGVFSTAARELGLSEVVNYQRSTPVELFDGVPFNAEDPIAYLNSLPIHRDFSVAEIALDQPRPIAAA
B12: DNA gyrase subu B (protein, UniProt Q8GIT7 1-645)
chain: MANEYGASQIQVLEGLEPVRKRPGMYIGSTGPKGLHHLVYEVVDNAVDEALAGYCNTIDVRLLEDGSCQVTDNGRGIPTDIHPQTGKSALETVLTILHAGGKFGGGGYKVSGGLHGVGVSVVNALSEYVEVTVWREGKTHQQRFEQGNPIGELQVAPDADDRRGTQVRFKPDATIFSETTEFDYGTLASRLKELAYLNAGVRIDFTDERLQLTKNHEPHQETYYFEGGIREYVAYMNTDKQALHSEIIFVQSEKDGVQVEAALQWCVDAYSDNILGFANNIRTIDGGTHIEGLKTVLTRTMNTIARKRNKRKDADNNLSGENIREGLTAIVSVKVPDPEFEGQTKTKLGNTEVRGIVDTLVGETLTEYLEFHPSVADLILEKAIQAFNAAEAARRARELVRRKSVLESSTLPGKLADCSSRDPGESEIFIVEGDSAGGSAKQGRDRRFQAILPLRGKILNIEKTDDAKIYKNTEIQALITALGLGIKGEEFDASQLRYHRIVIMTDADVDGAHIRTLLLTFFYRYQRSLLEQGYIYIACPPLYKLERGRNHYYCYNERELQERIATFPENANYTIQRFKGLGEMMPQQLWETTMDPETRTMKRVEIEDAAEADRIFTILMGDRVQPRREFIETYGPQLSMAALDI
B13: DNA gyrase subu A (protein, UniProt Q31RN3 1-856)
chain: MSAQERIIQTDLRNEMSRSYLEYAMSVIVGRALPDARDGLKPVHRRILYAMYELGLTPDRPFRKCARVVGEVLGKYHPHGDTAVYDALVRMAQDFSMRSPLIDGHGNFGSIDNDPPAAMRYTESRLKPLTTDGLLQDIEAETVDFSDNFDGSQQEPTVLPARLPQLLLNGSSGIAVGMATNIPPHNPTELIAGVIALIHNPEISDRELMRHIPGPDFPTGGQVLGSAGIRDAYLTGKGSITMRGVATIDTIEAPGRPVRDAIIITELPYQTNKAALIERIAEMVNEKRLEGISDIRDESDRDGMRIVIELKRDAYPQVVLNNLYKQTPLQSNFSANMLALVDGEPVLLTLKRSLEVFLDFRIETIERRTRYELRKAEERDHLLQGLLIALGNLDAIIELIRRSADAPRAKQELIDVYGLSEVQSDAILQMQLRRLTALEAEKIEQEHQDLQRRIEDYRDILARRERVLEIIETELEQLQQRFQEPRRTTLLEADGELETIDLIANEKSILLLTQQGYIKRMPVNEFTAQSRGTRGKAGAKTKDDDSVEHFLTCCDHDNILFFSDRGVVYNLPAYRIPAASRNARGVPIVQLLPIPREERITSIVPVSAFSDDEYLVMLTQGGYIKKTALSAFANIRSNGLIAIALSEGDQLRWVRLAKPEDSILIGSRKGMTIHFRASHDDLRPLGRATRGVRAMSLRSGDTLISMDVLPASLTANMTETGDEDEADDAVEVVASPGPWVLVVTAQGLGKRVPVHQFRLQKRAGLGLRAIKFRSKQDELVSLRIVESGDELVMISQRSVIIRQASDAIPQQSRAATGVRVQRLDADDVLAAVALVPPGEEELDETSEDAIASDEPN

Molecular target: T1, FtsZ-GFP (Synechococcus elongatus PCC7942)
Test: affinity purification with mass spectrometry; FtsZ-GFP as bait; total protein extracts (4 mg/IP) of S. elongatus cells of the exponential, stationary and late stationary phase; anti-GFP antibody-coupled magnetic beads, trypsin digest in column, LC-MS/MS; non-antibody and GFP negative controls; three repetitions

Row | binding | Binder
1 | binds | B1
2 | binds | B2
3 | binds | B3
4 | binds | B4
5 | binds | B5
6 | binds | B6
7 | binds | B7
8 | binds | B8
9 | binds | B9
10 | binds | B10
11 | binds | B11
12 | binds | B12
13 | binds | B13
